Drawing on publication PMC12005740, this text covers binding for two substances.

By UniProt entry, the sequences of proteins in these tests, tags left out.
UniProt Q6PF93: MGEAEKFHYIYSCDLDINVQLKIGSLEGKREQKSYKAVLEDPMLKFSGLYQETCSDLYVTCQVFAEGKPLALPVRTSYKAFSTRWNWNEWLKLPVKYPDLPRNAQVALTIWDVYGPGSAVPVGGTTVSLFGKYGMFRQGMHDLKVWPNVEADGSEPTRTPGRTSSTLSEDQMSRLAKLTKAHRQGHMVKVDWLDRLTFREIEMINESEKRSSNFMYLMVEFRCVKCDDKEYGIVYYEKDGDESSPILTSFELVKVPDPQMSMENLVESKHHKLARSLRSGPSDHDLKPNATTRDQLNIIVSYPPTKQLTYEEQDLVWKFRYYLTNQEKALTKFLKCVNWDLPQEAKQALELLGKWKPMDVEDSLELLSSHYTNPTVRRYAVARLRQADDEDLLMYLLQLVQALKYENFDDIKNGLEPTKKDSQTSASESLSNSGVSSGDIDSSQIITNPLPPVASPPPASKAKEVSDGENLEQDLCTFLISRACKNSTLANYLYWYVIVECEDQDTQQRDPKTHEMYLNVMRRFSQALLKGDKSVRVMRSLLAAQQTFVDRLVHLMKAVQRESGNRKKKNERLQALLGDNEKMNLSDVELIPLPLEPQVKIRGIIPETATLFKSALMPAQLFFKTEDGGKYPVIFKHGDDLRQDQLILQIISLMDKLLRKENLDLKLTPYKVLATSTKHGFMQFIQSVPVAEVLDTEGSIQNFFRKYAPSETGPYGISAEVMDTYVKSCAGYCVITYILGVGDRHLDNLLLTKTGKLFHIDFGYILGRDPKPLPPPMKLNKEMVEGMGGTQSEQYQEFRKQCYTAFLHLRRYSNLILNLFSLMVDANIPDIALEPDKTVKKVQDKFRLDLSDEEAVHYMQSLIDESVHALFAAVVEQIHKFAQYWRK

This assay deals with T1, Stimulator of interferon genes protein (STING) (mouse (endogenous in L929)) (UniProt Q3TBT3).
T1 sequence: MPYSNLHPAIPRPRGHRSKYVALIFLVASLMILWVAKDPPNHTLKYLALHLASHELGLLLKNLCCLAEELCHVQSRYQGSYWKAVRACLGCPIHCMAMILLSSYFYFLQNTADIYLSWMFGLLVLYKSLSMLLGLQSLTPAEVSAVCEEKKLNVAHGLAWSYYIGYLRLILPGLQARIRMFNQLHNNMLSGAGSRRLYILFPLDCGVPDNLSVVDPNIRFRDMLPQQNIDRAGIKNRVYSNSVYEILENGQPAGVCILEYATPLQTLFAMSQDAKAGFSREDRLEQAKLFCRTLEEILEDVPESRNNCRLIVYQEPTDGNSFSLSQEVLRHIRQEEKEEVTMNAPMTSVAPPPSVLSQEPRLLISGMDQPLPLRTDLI
The experiment in a line: co-IP; L929 cells stimulated with S-cddA (100 nM), ML323 (5 uM) or both for 1 or 2 h; IP lysis buffer; 1 mg/500 uL lysate with primary antibody overnight at 4 C, Protein A + G Agarose 4 h, TBS washes; Western blot. A general note: In western blotting, separated proteins are transferred to a membrane and probed.

These are yes or no findings as the source states them, for the method shown. In cells and extracts the contact can be indirect. Some binding calls cover weakened binding; strength is not graded here.

Take “STING ER exit protein (STEEP) (from UniProt Q8VDP2 1-222)”: the binding result is “binds”.

As to “vacuolar protein sorting 34 (VPS34) (from UniProt Q6PF93 1-887)”, the binding result is “no binding”.
